Taken from: PubChem BioAssay AID1053208 (Peter MacCallum Cancer Centre, 2014)

Aim: 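Find knock-downs that sensitise mouse osteosarcoma cells to doxorubicin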 (primary screen)
Cells: mouse osteosarcoma cells, early-passage culture from an engineered mouse model of fibroblastic bone tumour
Knock-down reagent: siRNA pool against mouse genes, 40 nM
Timing: about 120 h (48 h before drug, then 72 h with drug)
Treatment: doxorubicin 100 nM for 72 h, roughly 30-40% inhibitory dose
Measured: 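Luminescent ATP signal taken as viability with or without 100 nM doxorubicin for 72 h; mean of two wells set against non-targeting siRNA and turned into robust z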
Scale: viability z-score with doxorubicin: higher = more viable cells under doxorubicin; viability z-score without drug: higher = more viable cells with knock-down alone
Hit rule: 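a pool counts as active when its viability z-score with doxorubicin is -2 or below and its z-score without drug lies between -2 and 2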
Shown is one part, drawn at random, of about 17,000 reagents tested. 788 of all reagents (4.7%) count as active. 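Calls rest on z-score classes alone; an extra cut-off of viability at most 70% of control was not applied to them.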 Further read-outs or replicates are left out here.

With knock-down of Igf1 [SID152320783], the screen gave combined z-score class low cell count without drug only; viability z-score with doxorubicin 0.45; viability z-score without drug -2.53; inactive.
Depletion of Exosc6 [SID152277200] gave: combined z-score class no change with or without drug; viability z-score with doxorubicin 0.22; viability z-score without drug 0.17; inactive.
Tpsb2 [SID152288136] gave combined z-score class no change with or without drug; viability z-score with doxorubicin 0.67; viability z-score without drug 0.17; inactive.
After knock-down of Tspoap1 [SID152302603] the results were combined z-score class no change with or without drug; viability z-score with doxorubicin -0.11; viability z-score without drug 0.84; inactive.
Mtmr1 [SID152307937] scored combined z-score class no change with or without drug; viability z-score with doxorubicin 0.22; viability z-score without drug -1.18; inactive.
After knock-down of Tmem255a [SID152313724], the record shows combined z-score class no change with or without drug; viability z-score with doxorubicin 0.67; viability z-score without drug 0.17; inactive.
Silencing of Gpr180 [SID152293666] came out at: combined z-score class no change with or without drug; viability z-score with doxorubicin -1.24; viability z-score without drug 0.51; inactive.
Tpm1 [SID152261398] scored combined z-score class no change with or without drug; viability z-score with doxorubicin 0.67; viability z-score without drug 0.51; inactive.
Against Tmx1 [SID152292584] the deposit lists combined z-score class no change with or without drug; viability z-score with doxorubicin -0.45; viability z-score without drug 0; inactive.
With knock-down of 5730455P16Rik [SID152342644], the record shows combined z-score class no change with or without drug; viability z-score with doxorubicin -0.34; viability z-score without drug 0.17; inactive.
With knock-down of Txlng [SID152260231], the screen gave combined z-score class no change with or without drug; viability z-score with doxorubicin -0.22; viability z-score without drug -0.51; inactive.
Depletion of Slain1 [SID152291768] resulted in: combined z-score class no change with or without drug; viability z-score with doxorubicin 0.56; viability z-score without drug -1.18; inactive.
After knock-down of Zfp704 [SID152336834] the results were combined z-score class no change with or without drug; viability z-score with doxorubicin -0.22; viability z-score without drug 0.51; inactive.
Depletion of Ubxn6 [SID152320738] resulted in: combined z-score class no change with or without drug; viability z-score with doxorubicin 1.01; viability z-score without drug -0.67; inactive.
For Pclo [SID152277369] the deposit lists combined z-score class no change with or without drug; viability z-score with doxorubicin -1.46; viability z-score without drug 0.84; inactive.
Slu7 [SID152284880] gave combined z-score class no change with or without drug; viability z-score with doxorubicin -1.12; viability z-score without drug 0.67; inactive.
With knock-down of Kctd18 [SID152326721], the record shows combined z-score class no change with or without drug; viability z-score with doxorubicin -1.8; viability z-score without drug 0.17; inactive.
Silencing of Cxcl9 [SID152294978] came out at: combined z-score class no change with or without drug; viability z-score with doxorubicin -0.45; viability z-score without drug -0.84; inactive.

In a second layout: entries from further up
| gene | PubChem SID | combined z-score class | viability z-score with doxorubicin | viability z-score without drug | outcome |
| --- | --- | --- | --- | --- | --- |
| Tspoap1 | SID152302603 | no change with or without drug | -0.11 | 0.84 | inactive |
| Mtmr1 | SID152307937 | no change with or without drug | 0.22 | -1.18 | inactive |
| Tmem255a | SID152313724 | no change with or without drug | 0.67 | 0.17 | inactive |

Next reagents:
Depletion of Wdr64 [SID152293689] came out at: combined z-score class low cell count with doxorubicin only; viability z-score with doxorubicin -2.7; viability z-score without drug -1.52; active.
Against Crybb3 [SID152333825], the entry reads combined z-score class no change with or without drug; viability z-score with doxorubicin 0.67; viability z-score without drug 0.84; inactive.
Gfap [SID152335840] gave combined z-score class no change with or without drug; viability z-score with doxorubicin 0.22; viability z-score without drug -0.51; inactive.
For Or5ar1 [SID152281293], the entry reads combined z-score class low cell count with and without drug; viability z-score with doxorubicin -2.92; viability z-score without drug -2.53; inactive.
Against Rmdn2 [SID152302993], the entry reads combined z-score class no change with or without drug; viability z-score with doxorubicin 0.34; viability z-score without drug 1.18; inactive.
For Stk3 [SID152313700] the deposit lists combined z-score class no change with or without drug; viability z-score with doxorubicin -0.9; viability z-score without drug -1.52; inactive.
For Fam78a [SID152262731], the values are combined z-score class no change with or without drug; viability z-score with doxorubicin -1.46; viability z-score without drug -1.52; inactive.
For Ifi209 [SID152322418], the entry reads combined z-score class no change with or without drug; viability z-score with doxorubicin 0.56; viability z-score without drug -0.51; inactive.
With knock-down of Grid2 [SID152326939] the results were combined z-score class no change with or without drug; viability z-score with doxorubicin -0.34; viability z-score without drug -0.51; inactive.
Against Tm4sf20 [SID152343035], the entry reads combined z-score class high cell count without drug only; viability z-score with doxorubicin -0.9; viability z-score without drug 2.19; inactive.
